Results as given in patent publication US6440387B1, “Methods for determining risk of Alzheimer's disease” (Children's Medical Center Corporation, priority 1998, dated 2002).
At least one compound was matched to its structure with a doubt left. Some compounds share one wording; it may come from a single statement.

Test system: Aβ production by human cortical neurons
Assay: Effect of HMG CoA reductase inhibitors on Aβ levels in human cortical neuronal cultures
Format: cell-based
Settings: 48 hours
Protocol: Busciglio et al., (1993) Proc. Nat. Acad. Sci. 90, 2092-2096, described the production of Aβ by human cortical neurons in culture . To determine whether cholesterol can affect the production of Aβ, primary human brain cultures were established from the cortex of 16-20 week fetal abortuses, and the neurons incubated in the absence or presence of very low density lipoprotein (VLDL), low density lipoprotein (LDL) or high density lipoprotein (HDL) particles isolated from human plasma. These lipoprotein particles are the physiological vehicles for the transport of cholesterol to cells. The effects of the different lipoprotein particles on the levels of Aβ in the human cortical cultures was determined. The human cortical cultures were maintained in serum-free Dulbecco's Modified Eagle's Medium (DMEM) with N2 supplements (a serum-free supplement that supports neuronal viability). The medium was then changed to the same medium (controls) or medium supplemented with VLDL, LDL, or HDL particles. After incubation for 48-72 hours, Aβ was measured by immunoprecipitation of the culture medium with a polyclonal antibody to Aβ (B12), followed by Western blotting with a mohoclonal antibody to Aβ (6E10). The Western blots were developed either by the enhanced chemiluminescence method or by addition of an ^25I-labeled secondary antibody and phosphorimager scanning. The bands corresponding to the 40 and 42 amino acid form of Aβ were analyzed quantitatively using a computer software program. Control human cortical cultures produced basal levels of Aβ.
The HMG CoA reductase inhibitors have been used in humans to decrease plasma levels of cholesterol in patients at risk for heart disease. The discovery that cholesterol increases the amount of Aβ in the brain led to this investigation to determine whether the HMG CoA reductase inhibitors may be therapeutically efficacious for Alzheimer's disease by inhibiting the production of Aβ. […]

SMILES | levels of Aβ relative to controls (1 mM) | levels of Aβ relative to controls (100 μM)
CC[C@H](C)C(=O)O[C@H]1C[C@H](O)C=C2C=C[C@H](C)[C@H](CC[C@@H](O)C[C@@H](O)CC(=O)O)[C@H]21 [pravastatin] | significantly decreased levels of Aβ | 
CCC(C)(C)C(=O)O[C@H]1C[C@@H](C)C=C2C=C[C@H](C)[C@H](CC[C@@H]3C[C@@H](O)CC(=O)O3)[C@H]21 [simvastatin] |  | significantly decreased levels of Aβ
CC(C)n1c(/C=C/C(O)CC(O)CC(=O)O)c(-c2ccc(F)cc2)c2ccccc21 (stereo not drawn) [fluvastatin] |  | significantly decreased levels of Aβ
